No constants are given. Whether binding was seen depends on the method and setting.
Key:
[1] = biological target: prolyl endopeptidase-like (PREPL) protein (human) (UniProt Q4J6C6); assay: SPR; Biacore T200, PREPL or POP amine-coupled on CM5 (1134.6 RU PREPL, 1514.1 RU POP); α-Syn analyte 0.1-250 μM (BSA as specificity control), HBS + EP pH 7.4, 25 °C, 15 μL/min; apparent Kd from response vs. concentration (one-site equation, α-Syn below 50 μM) and Kd from ka and kd of the Biacore evaluation software; both purified
[2] = biological target: prolyl oligopeptidase (POP) (human) (UniProt P48147); assay: as above

Amino acid sequences for entries named in this document (tags omitted). Residues count along the entry.
UniProt P48147: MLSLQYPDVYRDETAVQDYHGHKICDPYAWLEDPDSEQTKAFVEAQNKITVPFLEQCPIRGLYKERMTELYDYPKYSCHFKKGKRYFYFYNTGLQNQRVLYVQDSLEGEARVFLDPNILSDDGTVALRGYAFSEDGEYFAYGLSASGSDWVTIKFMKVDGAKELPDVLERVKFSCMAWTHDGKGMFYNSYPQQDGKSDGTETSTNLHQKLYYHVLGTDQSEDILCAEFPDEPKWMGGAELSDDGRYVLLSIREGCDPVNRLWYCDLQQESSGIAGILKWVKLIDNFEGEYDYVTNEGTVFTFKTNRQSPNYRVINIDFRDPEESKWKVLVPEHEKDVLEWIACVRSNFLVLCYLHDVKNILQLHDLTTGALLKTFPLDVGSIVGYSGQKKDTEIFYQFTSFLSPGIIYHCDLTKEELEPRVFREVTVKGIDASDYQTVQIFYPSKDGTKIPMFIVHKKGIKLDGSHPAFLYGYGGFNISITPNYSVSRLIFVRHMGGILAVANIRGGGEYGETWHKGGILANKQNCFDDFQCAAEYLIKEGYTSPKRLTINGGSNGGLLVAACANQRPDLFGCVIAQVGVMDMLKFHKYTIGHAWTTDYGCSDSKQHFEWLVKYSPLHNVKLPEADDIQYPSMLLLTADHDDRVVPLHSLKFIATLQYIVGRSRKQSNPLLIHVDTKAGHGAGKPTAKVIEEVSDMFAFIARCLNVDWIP
UniProt P02769, residues 25-607: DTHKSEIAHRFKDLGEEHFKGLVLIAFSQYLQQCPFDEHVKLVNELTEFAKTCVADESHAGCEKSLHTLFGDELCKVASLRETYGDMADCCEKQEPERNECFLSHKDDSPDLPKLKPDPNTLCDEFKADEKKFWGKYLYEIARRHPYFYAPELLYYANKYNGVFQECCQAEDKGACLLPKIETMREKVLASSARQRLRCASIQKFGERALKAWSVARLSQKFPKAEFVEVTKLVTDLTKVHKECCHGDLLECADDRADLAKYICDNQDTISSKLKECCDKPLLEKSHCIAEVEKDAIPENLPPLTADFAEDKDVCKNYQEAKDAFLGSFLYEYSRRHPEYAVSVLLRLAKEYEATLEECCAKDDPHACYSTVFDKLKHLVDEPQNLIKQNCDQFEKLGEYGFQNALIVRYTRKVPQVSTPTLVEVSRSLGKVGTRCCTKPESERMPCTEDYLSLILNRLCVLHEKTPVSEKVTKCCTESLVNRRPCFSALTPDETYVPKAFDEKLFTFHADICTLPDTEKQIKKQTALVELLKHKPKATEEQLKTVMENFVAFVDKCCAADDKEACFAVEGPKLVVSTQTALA

binding [1]: no binding
binding [2]: no binding
Substance: bovine serum albumin (from UniProt P02769 25-607)
